Source: US8394809B2, “Phenoxy-substituted pyrimidines as opioid receptor modulators” (priority 2009, dated 2013)
At least one compound was matched to its structure with a doubt left.

Protein sequences, listed by entry. Tags and fused reporters are not part of them.
UniProt P32300, whole entry: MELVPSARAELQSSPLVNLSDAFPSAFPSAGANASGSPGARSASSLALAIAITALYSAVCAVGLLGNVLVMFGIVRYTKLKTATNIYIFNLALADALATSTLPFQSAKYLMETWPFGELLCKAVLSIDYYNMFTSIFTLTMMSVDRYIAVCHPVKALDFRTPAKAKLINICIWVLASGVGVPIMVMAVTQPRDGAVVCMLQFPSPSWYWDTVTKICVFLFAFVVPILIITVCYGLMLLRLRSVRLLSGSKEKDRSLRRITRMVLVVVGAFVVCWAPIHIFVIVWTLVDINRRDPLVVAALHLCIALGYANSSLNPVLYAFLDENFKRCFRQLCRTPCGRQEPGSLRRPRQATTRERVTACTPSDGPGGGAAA

Biological target: T1, delta opioid receptor (Mus musculus, UniProt P32300)
T1 construct: NG108-15 cell membranes were purchased from Applied Cell Sciences (Rockville, Md.); host or cells: NG108-15 cell membranes (purchased)
Assay: [35S]GTPγS binding assay in NG108-15 cell membranes (delta opioid functional assay)
Assay type: biochemical
Protocol: Methods: NG108-15 cell membranes were purchased from Applied Cell Sciences (Rockville, Md.). 5 mg/mL of membrane protein was suspended in 10 mM TRIS-HCl pH 7.2, 2 mM EDTA, 10% sucrose. Membranes were maintained at 4-8° C. A 1 mL volume of membranes was added into 10 mL cold binding assay buffer. The assay buffer contained 50 mM Tris, pH 7.6, 5 mM MgCl2, 100 mM NaCl, 1 mM DTT and 1 mM EGTA. The membrane suspension was homogenized twice with a Polytron, and centrifuged at 3000 rpm for 10 min. The supernatant was then centrifuged at 18,000 rpm for 20 min. Ten mL assay buffer was added into the pellet containing tube. The pellet and buffer were mixed with a Polytron.
Incubation procedure: The pellet membranes (75 μg/mL) were preincubated with SPA (10 mg/mL) at 25° C. for 45 min in the assay buffer. […] 200 nM of receptor agonists was used to stimulate [^35S]-GTPγS binding. The basal binding was tested in the absence of agonists and non-specific binding was tested in the presence of 10 μM unlabeled GTPγS.
Data % of Basal=(stimulated−non specific)*100/(basal−non specific). Relative Efficacy of a compound at 200 nM=(% of Basal of test compound at 200 nM)/(Calculated Max of SNC80 dose response. Curve in prism).

SMILES: COc1ccc(Oc2nc(C#Cc3ccccc3)ncc2NC[C@@H]2CCCN2)cc1 [Cpd 4, [4-(4-Methoxy-phenoxy)-2-phenylethynyl-pyrimidin-5-yl]-pyrrolidin-2-(S)-ylmethyl-amine]
- GTPγS δ-opioid receptor Rel Efficacy: 0.923
